Binding data for four molecules are collected here from doi:10.1101/2020.10.20.346858.

Amino acid sequences for entries named in this document (tags omitted). A change or cut given only in a name is not applied to a line headed by its entry.
UniProt Q05639, whole entry: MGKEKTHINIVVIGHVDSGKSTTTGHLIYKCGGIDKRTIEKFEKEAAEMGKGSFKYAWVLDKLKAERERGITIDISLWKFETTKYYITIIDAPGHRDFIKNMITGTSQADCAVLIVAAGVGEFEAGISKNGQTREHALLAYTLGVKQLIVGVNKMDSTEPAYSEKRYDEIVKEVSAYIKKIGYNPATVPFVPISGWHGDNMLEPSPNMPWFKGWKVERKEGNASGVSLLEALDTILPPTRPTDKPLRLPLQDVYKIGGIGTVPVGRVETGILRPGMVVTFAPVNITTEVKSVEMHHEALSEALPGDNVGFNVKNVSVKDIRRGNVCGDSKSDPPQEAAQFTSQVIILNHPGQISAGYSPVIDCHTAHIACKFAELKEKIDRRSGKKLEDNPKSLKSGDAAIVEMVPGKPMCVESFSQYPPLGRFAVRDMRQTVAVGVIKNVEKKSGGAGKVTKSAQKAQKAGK

Test [1] has as its target FLAG-eEF1A2 SA (phosphoablated mutant) (UniProt Q05639). In words: co-IP.
For test [2], the target named is FLAG-eEF1A2 SE (phosphomimetic mutant) (UniProt Q05639). In words: co-IP.
Test [3] has as its target FLAG-eEF1A2 wt (eukaryotic elongation factor 1 alpha 2) (UniProt Q05639). In words: co-IP.
Test [4] has as its target FLAG-eEF1A2 SA (phosphoablated mutant) (UniProt Q05639). The test can be described thus: co-IP. The source holds these as a separate data set.
For test [5], the target named is mGFP-eEF1A2 wt (UniProt Q05639). The test can be described thus: FRET or BRET. On the technique in general: BRET reads energy transfer from a luciferase to a nearby fluorophore.
Test [6] concerns the target mGFP-eEF1A2 SA (UniProt Q05639). In words: FRET or BRET.
Test [7] deals with mGFP-eEF1A2 SE (UniProt Q05639). In words: FRET or BRET.
Test [8] deals with mGFP-eEF1A2 wt (UniProt Q05639). In words: FRET or BRET. This is another data set of the same source.
Test [9] addresses mGFP-eEF1A2 SA (UniProt Q05639). The test can be described thus: FRET or BRET. The source holds these as a separate data set.
The target in test [10] is mGFP-eEF1A2 SE (UniProt Q05639). In words: FRET or BRET. The source holds these as a separate data set.

Where two headings read alike, the source gives them in different places. Results are given in words; binding and its absence hold for the method and conditions named. In cells and extracts the contact can be indirect. Some entries that bind do so weakly or less than the wild type. For some of these results: Where a sequence is shown, tags or fusion partners need not be part of it.

Consider “FLAG-eEF1A2 SA (phosphoablated mutant) (from UniProt Q05639 1-463)”, for which the binding entry in test [1] is “binds”.

With “FLAG-eEF1A2 SE (phosphomimetic mutant) (from UniProt Q05639 1-463)”, the binding entry in test [2] was “binds”.

B1: HA-eEF1B2 (protein, UniProt P24534 1-225)
chain: MGFGDLKSPAGLQVLNDYLADKSYIEGYVPSQADVAVFEAVSSPPPADLCHALRWYNHIKSYEKEKASLPGVKKALGKYGPADVEDTTGSGATDSKDDDDIDLFGSDDEEESEEAKRLREERLAQYESKKAKKPALVAKSSILLDVKPWDDETDMAKLEECVRSIQADGLVWGSSKLVPVGYGIKKLQIQCVVEDDKVGTDMLEEQITAFEDYVQSMDVAAFNKI
Turning to B1, the binding result in [3] and in test [4] was “binds” throughout.

B2: mScarlet-eEF1B2 (protein, UniProt P24534 1-225)
chain: MGFGDLKSPAGLQVLNDYLADKSYIEGYVPSQADVAVFEAVSSPPPADLCHALRWYNHIKSYEKEKASLPGVKKALGKYGPADVEDTTGSGATDSKDDDDIDLFGSDDEEESEEAKRLREERLAQYESKKAKKPALVAKSSILLDVKPWDDETDMAKLEECVRSIQADGLVWGSSKLVPVGYGIKKLQIQCVVEDDKVGTDMLEEQITAFEDYVQSMDVAAFNKI
Regarding B2, the binding entry in test [5], in [6], in [7], in [8], in test [9] and in [10] was “binds” each time.
